Values from PubChem BioAssay AID1259424 (University of Nebraska Medical Center, 2018).
Shown is one part, drawn at random, of about 14,000 reagents. 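Higher correlation or smaller distance means closer resemblance to KSR1 loss; control wells, including KSR1 knockdowns, recur on many plates.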 Further read-outs or replicates are left out here. Reagent sequences are not shown. Not given: the time to read-out.

Assay: 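Seek colon cancer survival genes behaving like KSR1, using a six-gene signature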 (primary screen)
Cell system: human HCT116 colon cancer cells
Reagents: siRNA pool against human genes, 50 nM
Measurement: 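Log2 levels of six mRNAs (branched-DNA multiplex), adjusted by two reference genes and the non-targeting median, then scored against the average KSR1 knockdown pattern as Pearson r and euclidean distance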
Scale: mean correlation with KSR1 profile: higher = expression change more like KSR1 knockdown; mean distance from KSR1 profile: higher = expression change less like KSR1 knockdown

target gene | mean correlation with KSR1 profile | mean distance from KSR1 profile
SIN3A | 0.0742 | 3.08
CADM1 | 0.0346 | 1.31
PZP | -0.482 | 1.48
DIP2C | 0.405 | 1.47
PTPRN | -0.102 | 1.23
FAM89B | 0.294 | 3.61
HK1 | 0.767 | 1.53
ATIC | -0.244 | 2.46
TMEM230 | -0.245 | 2.3
CYTH2 | -0.268 | 2.25
EBI3 | -0.547 | 2.01
EXOSC2 | -0.397 | 3.53
CHIC2 | -0.211 | 1.65
CD9 | 0.512 | 1.55
AKAP3 | 0.409 | 2.42
RECK | -0.476 | 3.4
PPP2R5B | -0.0704 | 1.26
SH3BP5 | 0.0764 | 1.2
PLEKHA5 | 0.591 | 1.6
GATAD1 | -0.587 | 1.54

Entries above whose gene name begins with P or p:
target gene | mean correlation with KSR1 profile | mean distance from KSR1 profile
PZP | -0.482 | 1.48
PTPRN | -0.102 | 1.23
PPP2R5B | -0.0704 | 1.26
PLEKHA5 | 0.591 | 1.6
